In the assay the target is T1, human GFRAL (form used in the screening of Examples 7 and 8 not stated) (human) (UniProt Q6UXV0).
T1 sequence: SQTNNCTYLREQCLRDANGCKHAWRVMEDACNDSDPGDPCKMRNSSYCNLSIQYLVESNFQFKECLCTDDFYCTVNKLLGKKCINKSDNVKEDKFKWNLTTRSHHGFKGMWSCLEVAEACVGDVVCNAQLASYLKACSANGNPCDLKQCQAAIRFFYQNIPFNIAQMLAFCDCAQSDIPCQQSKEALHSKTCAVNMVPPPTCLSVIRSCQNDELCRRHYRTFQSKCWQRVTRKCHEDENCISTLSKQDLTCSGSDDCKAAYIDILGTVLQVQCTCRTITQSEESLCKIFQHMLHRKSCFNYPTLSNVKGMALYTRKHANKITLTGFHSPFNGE
The assay is described as follows: assay not described.

Positions count from the first letter of the chain named. These are yes or no findings as the source states them, for the method shown. Some results given as binding are weak or reduced against the parent protein; the word gives no strength.

B1: QUEL-0102 (antibody, V domains shown)
VH: QVQLVESGGGVVQPGRSLRLSCAASGFTLKNYGMHWVRQGPGKGLEWVAIISYDGTFKYSVDSVKGRFTISRDNSKNTLYLQMNSLRTEDTALYYCAKEAGDFYGSGSYGYHKYGLDVWGQGTTVTVSS
VL: DVQMTQSPSSLSASVGDRVTITCRASQDISNYLAWYQQQPGKVPKLLIYAASTLQSGVPSRFSGSGSGTDFTLTISSLQPEDVASYYCQKYNSAPLTFGGGTEVEIK
With B1, the binding entry is given as “binds”.

B2: QUEL-0104 (antibody, V domains shown)
VH: B1 VH with L29F, K30N, F57T, L81M, N84D, S108N, H112L, K113Y
VL: B1 VL with V2I, Q39K, K45N, Y49F, S85T, E103K, K107N
For B2, the binding result is “binds”.

B3: QUEL-0103 (antibody, V domains shown)
VH: B1 VH with L29F, K30N, F57T, Y95F, S108N
VL: B1 VL with V2I, Q39K
In the case of B3, the binding result is given as “binds”.

B4: QUEL-0105 (antibody, V domains shown)
VH: B1 VH with G10D, L29F, P41L, F57T, S108N, H112Y, K113Y
VL: B1 VL with V2I, S26N, Q39K, V43F, S85T, E103K
Turning to B4, the binding result was “binds”.
